Literature values as cited in patent publication US20130029862A1, “Clinical application utilizing genetic data for effective medication management” (priority 2011, published 2013).
At least one structure is not confirmed: it was looked up by name or label, or the drawing left a doubt.

Details: if individual is T/T, DBH rs1611115

CCN(CC)C(=S)SSC(=S)N(CC)CC [Disulfiram]
treatment for cocaine addiction: Disulfiram effective treatment for
